For the test, the target named is Flag-AR-NTD (human (Gene ID 367 is the human gene)). In words: co-IP; 293T cells transfected with HA-labelled STARD4 and Flag-labelled AR or AR domain plasmids, western blotting.

No constants are given. Whether binding was seen depends on the method and setting. In cells and extracts the contact can be indirect. A result given as binding can be weak or reduced; the word gives no strength. Tags and fused reporters may be left off the sequences shown.

One molecule from publication PMC12699821, “STARD4 suppresses tumorigenesis and attenuates enzalutamide resistance via lipid metabolic reprogramming and AR stabilization in prostate cancer” (Journal of Experimental & Clinical Cancer Research : CR, 2025) can be followed below.

B1: His-tagged STARD4 (natural protein, human (Gene ID 134429 is the human gene), UniProt Q96DR4 1-205, looked up)
chain: MEGLSDVASFATKLKNTLIQYHSIEEDKWRVAKKTKDVTVWRKPSEEFNGYLYKAQGVIDDLVYSIIDHIRPGPCRLDWDSLMTSLDILENFEENCCVMRYTTAGQLWNIISPREFVDFSYTVGYKEGLLSCGISLDWDEKRPEFVRGYNHPCGWFCVPLKDNPNQSLLTGYIQTDLRGMIPQSAVDTAMASTLTNFYGDLRKAL
notes: STARD4, Gene ID 134429, vector printed as pGMLV; also called His-STARD4; source: BL21 (Rosetta) bacterial cells, purified (protein purification kit)
For the molecule B1, the binding result is “binds”.
